Reference: PubChem BioAssay AID1794845 (National Center for Advancing Translational Sciences (NCATS), 2023)
Fewer than 10 of roughly 6,900 compounds were called active. The call rests on the fitted dose curve; in most records, active means well fitted curve in the direction sought with a large enough effect; inconclusive means small, poorly fitted or top-dose-only effect, or another doubt; inactive means no such curve, though single readings can be large or run the other way. The list shows a part of the results.

Chains of the proteins cited; added tags and fusions are not shown. Lines headed by an entry give the natural chain unless they say otherwise; changes in a name come on top.
UniProt C7C422: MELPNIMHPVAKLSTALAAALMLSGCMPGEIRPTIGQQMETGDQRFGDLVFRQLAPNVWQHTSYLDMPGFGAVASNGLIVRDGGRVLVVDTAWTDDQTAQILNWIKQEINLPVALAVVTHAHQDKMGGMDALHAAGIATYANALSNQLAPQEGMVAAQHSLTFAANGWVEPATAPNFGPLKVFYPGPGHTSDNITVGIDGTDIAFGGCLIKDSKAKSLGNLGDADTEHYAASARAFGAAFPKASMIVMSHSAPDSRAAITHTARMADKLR

Target: Metallo-beta-lactamase type 2 (Klebsiella pneumoniae) (UniProt C7C422)
Assay: qHTS to identify inhibitors of the New Delhi Metallo-beta-lactamase (NDM): primary screen against the NCATS Gemini Collection; further: % of control where 0% means no effect
Conditions: NDM-1 enzyme, meropenem hydrolysis, absorbance 300 nm; at 38.4 µM (top of the series) unless noted
Method in brief: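 NDM-1 at 2 nM final in 50 mM HEPES pH 7.0, 1 uM ZnSO4, 0.01% Tween20, preincubated >30 min with compound. Meropenem 50 uM final added; absorbance at 300 nm after 30 min.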

Activity % (negative = inhibition), inactive:
CC(C)c1cc(C(=O)N[C@@H]2COCC[C@@H]2Oc2cccc(F)c2)nc(N)n1 2.46%
O=C(c1ccc(F)cc1)N1CCC(OCCOc2cccnc2)CC1 18.3%
COc1ccc(C(=O)N2CCCN(c3nnc4ccc(Cl)cn34)CC2)cn1 -9.23%
O=C1CCN(Cc2ccncc2)CCCC(C(=O)NCCCN2CCCC2=O)CCN1 (stereo not given) 7%
Cc1nn(C)cc1C(=O)N1C[C@@H](CO)[C@H](c2ccncc2)C1 0.936%
CCOC(=O)N1CCC(NC(=O)c2ccccc2C2CCNC2)CC1 (stereo not given) 8.32%
CCCC(=O)N1CCC(O)(c2ccccc2)[C@H](N2CCCC2)C1 (stereo not given in full) 3.37%
O=C(c1ccccc1F)N1CCC2(CC(c3cccc(C(F)(F)F)c3)=NO2)C1 (stereo not given) 8.37%
CCCCc1cc(C[C@H]2CNCC[C@H]2CC(=O)N2CCC(Cc3ccccc3)CC2)no1 3.38%
CN1C(=O)c2cccn2CC1CNC(=O)c1cccc2nccnc12 (stereo not given) -0.0294%
O=C1NC[C@@H](CCC(=O)N2CCc3ccccc32)N2C[C@@H](NCc3ccc(CO)o3)C[C@@H]12 0.433%
CC(=O)Nc1cccc(-c2cc3c(cn2)CN(Cc2ccccc2)CCN3)c1 8.71% [at 57.5 µM]
CCCNC(=O)C1CCc2ncc(-c3ccc(OC)cc3)n2C1 (stereo not given) 8.93%
COc1cccc(CCC(=O)N2CCC3(CC2)N=C(c2ccccc2)NO3)c1 16.3%
COCCN1C(=O)CS(=O)C12CCN(S(=O)(=O)c1ccccc1)CC2 (stereo not given) 12.7%
CCOCC(=O)Nc1nn(-c2ccc(F)cc2)c2cccc(N3CCOC3=O)c12 5.81%
Cc1cnc(CCNC(=O)c2cccs2)n1C1CCC1 0.936%
CCCNC(=O)O[C@@H]1CC[C@]2(C)[C@H](CC[C@@H](O)[C@H]2CC(=O)N2CCCC2)[C@]1(C)CO -0.131% [at 57.5 µM]
COc1cccc(-c2cn3c(n2)N(C(=O)Cc2cccs2)CCC3)c1 21%
CNC(=O)C1(N2CCC[C@H]2C(=O)N(C)Cc2cccnc2)CCOCC1 46.2% [at 57.5 µM]
CC(C)c1noc(-c2cn(C3CCN(C(=O)c4ccc(Cl)s4)C3)nn2)n1 (stereo not given) 22.1%
CN(C)C[C@@H]1CN(c2ccncn2)C[C@H]1NC(=O)COc1ccccc1 25.5%
Cn1cc(CN2CCN(c3ccc(C#N)cn3)CC2)c(-c2ccccc2)n1 12.2%
Cc1ccc(C)c(-c2cc(C(=O)N3CCCC3c3nncn3C(C)C)[nH]n2)c1 (stereo not given) -0.954%
CNC(=O)[C@@H]1CN(C(=O)CCc2cccc(OC)c2)C[C@H]1c1n[nH]c(C)n1 7.81%
O=C1CCC(C(=O)N2CCOCC2)CN1CCCc1ccccc1 (stereo not given) -5.82%
Cn1nc(C2CCCNC2)c2c(C(=O)NC3CC3)cc(C3CC3)nc21 (stereo not given) 2.23%
COc1ccc(C(=O)N2CCC(c3ncc(C)n3C(C)C)C2)cc1 (stereo not given) -1.26%
COCC1CN(Cc2ccc(C(C)C)cc2)CC12CCNCC2 (stereo not given) 41.6%
O=C1CCN(C(=O)C2(c3ccccc3)CC2)CCCCCCN1 -17.5%
O=C(NCCNc1cccnc1)C1CCC(=O)N(C2CC2)C1 (stereo not given) 13.8%
CC(C)(Oc1nn(CCN2CCOCC2)c2ccccc12)C(=O)NCc1ccncc1 12.5% [at 57.5 µM]
c1ccc(CCN(Cc2ccccc2)[C@H]2C[C@H]3CCOC[C@@]3(c3ccccc3)C2)cc1 -0.699%
NC(=O)c1ccc(O[C@@H]2COCC[C@H]2NC(=O)Cc2ccc(O)cc2)cc1 0.465%
CCCOCC(=O)N1CCCC(c2cc(N3CCCC3)nc(C)n2)C1 (stereo not given) 2.17%
Cc1ccccc1N1CCCN(Cc2ccccc2OCCO)CC1 9.05%
C[S+](=O)([O-])N1CCC(c2nnc3n2C(C(=O)NC2CCCCC2)CC3)CC1 (stereo not given) 13.9%
Cc1cccc(OCC(=O)N2CCCC(c3[nH]ccc3C(N)=O)C2)c1 (stereo not given) -2.52%
CCOc1ccc(C(=O)NC2CCN(c3cc(-c4ccc(OC)cc4)[nH]n3)C2)cc1OCC (stereo not given) -0.635%
O=C(Cc1ccccc1)Nc1ccc2n(c1=O)C[C@H]1C[C@@H]2CN(S(=O)(=O)c2ccc(Cl)cc2)C1 20.8%
CCN(CC)C(=O)CC1Sc2ncccc2N(CC(C)C)C1=O (stereo not given) 4.57%
CC(C)N1C[C@@H](CO)[C@H](c2nc(-c3cccnc3)no2)C1 19.7%
Cc1nnc2n1C(C)CN(C(=O)CCn1cnc3ccccc3c1=O)C2 (stereo not given) 2.76%
COc1cccc([S+](=O)([O-])N2CCn3cc(C(=O)NCc4ccc(Cl)nc4)nc3C2)c1 0.228%
COc1ccccc1CC(=O)N1CCN(c2cc(-c3cccs3)[nH]n2)CC1 2.18%
O=C(c1cccnc1)N1CC[C@H](c2nc3ccccc3o2)C1 -1.74% [at 57.5 µM]
CC(c1ccc(-c2ccc(CC(=O)O)cn2)cc1)N1CCCCC1 (stereo not given) 4.97%
CCn1nc2n(c1=O)CCN(Cc1cc(C)ccc1C)C2=O -1.37%
Cn1ncc(N2CCC(C(=O)N3CCC(C(N)=O)(N4CCCCC4)CC3)C2)cc1=O (stereo not given) 6.47%
CC(C)(C)c1ccc(CN2CC3(COCC2=O)CN(c2cnccn2)C3)cc1 7.28% [at 57.5 µM]
COc1ccc(-n2nc(C3CCCN(C(=O)c4ccc(Cl)nc4)C3)[nH]c2=O)cc1 (stereo not given) -3.19%
CS(=O)(=O)CCNC(=O)C1CCCN(C2CCN(Cc3cccnc3)CC2)C1 (stereo not given) 0.81%
COc1ccc(NC(=O)c2c(C)nc3n2CCC(Nc2ccccc2C)C3)cn1 (stereo not given) 9.21% [at 57.5 µM]
O=c1[nH]c(N2CCc3ccccc3C2)nc2c1CCN(Cc1cccs1)CC2 -4.65%
CN(C)Cc1nnc(C2CC(NC(=O)c3conc3-c3ccccc3)C2)n1C (stereo not given) -0.0569%

Grouped by structure: those above with an NH in an aromatic ring
Activity % (negative = inhibition), inactive:
Cc1ccc(C)c(-c2cc(C(=O)N3CCCC3c3nncn3C(C)C)[nH]n2)c1 (stereo not given) -0.954%
CNC(=O)[C@@H]1CN(C(=O)CCc2cccc(OC)c2)C[C@H]1c1n[nH]c(C)n1 7.81%
Cc1cccc(OCC(=O)N2CCCC(c3[nH]ccc3C(N)=O)C2)c1 (stereo not given) -2.52%
CCOc1ccc(C(=O)NC2CCN(c3cc(-c4ccc(OC)cc4)[nH]n3)C2)cc1OCC (stereo not given) -0.635%
COc1ccccc1CC(=O)N1CCN(c2cc(-c3cccs3)[nH]n2)CC1 2.18%
COc1ccc(-n2nc(C3CCCN(C(=O)c4ccc(Cl)nc4)C3)[nH]c2=O)cc1 (stereo not given) -3.19%
O=c1[nH]c(N2CCc3ccccc3C2)nc2c1CCN(Cc1cccs1)CC2 -4.65%

Sorted by number of heavy atoms (descending): 3 of the compounds above
Activity % (negative = inhibition), inactive:
CS(=O)(=O)CCNC(=O)C1CCCN(C2CCN(Cc3cccnc3)CC2)C1 (stereo not given) 0.81%
CC(c1ccc(-c2ccc(CC(=O)O)cn2)cc1)N1CCCCC1 (stereo not given) 4.97%
O=C1CCN(C(=O)C2(c3ccccc3)CC2)CCCCCCN1 -17.5%
